For this experiment, the system named is SARS-CoV-2. The experiment is described as follows: Determination of antiviral efficacy in high-content imaging assay in Vero E6 cells infected with SARS-CoV-2 (USA-WA1/2020 isolate) at MOI 0.75 after 24 hrs. Format: functional, organism-based, Chlorocebus sabaeus. The conditions noted are these: Severe acute respiratory syndrome coronavirus 2, Vero C1008, 24 h.

We go through one compound from ChEMBL document CHEMBL4303082, “A Large-scale Drug Repositioning Survey for SARS-CoV-2 Antivirals” (2020).

Regarding `COc1ccc(CCN2CCC(Nc3nc4ccccc4n3Cc3ccc(F)cc3)CC2)cc1` [ASTEMIZOLE], the EC50 was found to be 1100 nM.
